For 1 molecule, binding results are on record in article PMC6451123, “The G3-U70-independent tRNA recognition by human mitochondrial alanyl-tRNA synthetase” (Nucleic Acids Research, 2019).

These are yes or no findings as the source states them, for the method shown. Where a sequence is shown, tags or fusion partners need not be part of it.

This assay has as its target mature mouse mtAlaRS (Ser26-Leu980) with a C-terminal His6-tag (mouse) (UniProt Q14CH7). As to the kind of experiment: SEC; gel filtration of the purified enzyme; apparent molecular mass from the elution volumes of three standard proteins (apoferritin 443 kDa, yeast alcohol dehydrogenase 150 kDa, bovine serum albumin 66 kDa); both purified.

B1: mature mouse mtAlaRS (Ser26-Leu980) with a C-terminal His6-tag (enzyme, UniProt Q14CH7 26-980)
chain: STEPGPPHGAAVRDAFLSFFRDRHGHRLVPSATVRPRGDPSLLFVNAGMNQFKPIFLGTVDPRSEMAGFRRVVNSQKCVRAGGRHNDLEDVGRDLSHHTFFEMLGNWAFGGEYFKEEACSMAWELLTQVYGIPEDRLWVSYFSGDSQTGLDPDLETRDIWLSLGVPASRVLSFGPQENFWEMGDTGPCGPCTEIHYDLAGGVGSPQLVELWNLVFMQHYREADGSLQLLPQRHVDTGMGLERLVAVLQGKRSTYDTDLFSPLLDAIHQSCGAPPYSGRVGAADEGRIDTAYRVVADHIRTLSVCIADGVSPGMSGAPLVLRRILRRAVRYSTEVLQAPPGFLGSLVPVVVETLGSAYPELEKNSVKIASLVSEDEAAFLASLQRGRRIIDRTVKRLGPSDLFPAEVAWSLSLSGNLGIPLDLVELMLEEKGVKLDTAGLEQLAQKEAQHRAQQAEADQEDRLCLDVHALEELHRQGIPTTDDSPKYNYTLHPNGDYEFGLCEARVLQLYSETGTAVASVGAGQRCGLLLDRTNFYAEQGGQASDRGYLVRTGQQDMLFPVAGAQLCGGFILHEAMAPERLQVGDQVQLYVDKAWRMGCMVKHTATHLLSWALRQTLGPTTEQRGSHLNPERLRFDVATQTLLTTEQLRTVESYVQEVVGQDKPVFMEEVPLAHTARIPGLRSLDEVYPDPVRVVSVGVPVAHALGPASQAAMHTSVELCCGTHLLSTGAVGDLVIIGERQLVKGITRLLAITGEQAQQAREVGQSLSQEVEAASERLSQGSRDLPEAHRLSKDIGRLTEVAESAVIPQWQRQELQTTLKMLQRRANTAIRKLEKGQATEKSQELLKRHSEGPLIVDTVSAESLSVLVKVVRQLCKQAPSISVLLLSPQPTGSVLCACQVAQDATPTFTAEAWALAVCSHMGGKAWGSRVVAQGTGHTADLEAALGTARAYALSQL
Regarding B1, the binding entry is recorded as “no binding”.
